Source: the supplement of paper PMC5355238
Structures can show the parent of a compound that is named as a salt. The list shows a part of the results. Most values lie at the level of the controls, where differences are scatter.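 Reh is a human leukemia cell line; the read-out is the median γH2AX antibody signal in S-phase cells by flow cytometry, with the score counting standard deviations from the median difference of each paired set of plates. Scores above 2.5 were called candidate hits, while scores below -2 mark compounds that lowered the MK1775-induced damage.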

What follows are compounds tested on Reh (assay: Z' of S-phase gammaH2AX difference (drug + MK1775 minus drug alone) (Z-score); higher = stronger synergistic S-phase DNA damage with MK1775). Conditions: MK1775 concentration 400 nM; first compound 10 µM; 4 h.

SMILES	Z' of S-phase gammaH2AX difference (Z-score)
C[C@H](O)C(=O)C1=Nc2c(nc(N)[nH]c2=O)NC1 [Sepiapterin] + C=CCn1c(=O)c2cnc(Nc3ccc(N4CCN(C)CC4)cc3)nc2n1-c1cccc(C(C)(C)O)n1 [MK1775]	inactive: 0.0354
CC(C)(C)c1cc(/C=C(\C#N)C(N)=S)cc(C(C)(C)C)c1O [Tyrphostin AG 879] + C=CCn1c(=O)c2cnc(Nc3ccc(N4CCN(C)CC4)cc3)nc2n1-c1cccc(C(C)(C)O)n1 [MK1775]	inactive: 0.226
O=C(O)c1ccccc1Nc1cccc(OCc2ccc3ccccc3n2)c1 + C=CCn1c(=O)c2cnc(Nc3ccc(N4CCN(C)CC4)cc3)nc2n1-c1cccc(C(C)(C)O)n1 [MK1775]	inactive: 0.345
COc1cc(C(O)C(=O)O)ccc1O (configuration not stated) [(?)-Vanillylmandelic acid] + C=CCn1c(=O)c2cnc(Nc3ccc(N4CCN(C)CC4)cc3)nc2n1-c1cccc(C(C)(C)O)n1 [MK1775]	inactive: -0.367
COc1ccc(COc2cc3oc(=O)c4cc(C(C)O)ccc4c3cc2OC)cc1 (configuration not stated) [Palomid 529] + C=CCn1c(=O)c2cnc(Nc3ccc(N4CCN(C)CC4)cc3)nc2n1-c1cccc(C(C)(C)O)n1 [MK1775]	inactive: 0.154
CCCCCCCC/C=C\CCCCCCCC(=O)O [Oleic Acid] + C=CCn1c(=O)c2cnc(Nc3ccc(N4CCN(C)CC4)cc3)nc2n1-c1cccc(C(C)(C)O)n1 [MK1775]	inactive: 0.223
CC(C)(C)NCC(O)c1ccc(O)c(CO)c1 (configuration not stated) [Albuterol hemisulfate] + C=CCn1c(=O)c2cnc(Nc3ccc(N4CCN(C)CC4)cc3)nc2n1-c1cccc(C(C)(C)O)n1 [MK1775]	inactive: -0.483
CC(C)(C)NCC(O)c1ccc(O)c(CO)c1 (configuration not stated) [Salbutamol] + C=CCn1c(=O)c2cnc(Nc3ccc(N4CCN(C)CC4)cc3)nc2n1-c1cccc(C(C)(C)O)n1 [MK1775]	inactive: -0.378
Cc1c(OCC(F)(F)F)ccnc1C[S+]([O-])c1nc2ccccc2[nH]1 (configuration not stated) [Lansoprazole] + C=CCn1c(=O)c2cnc(Nc3ccc(N4CCN(C)CC4)cc3)nc2n1-c1cccc(C(C)(C)O)n1 [MK1775]	inactive: 0.81
[N-]=[N+]=Nc1ccc(C(=O)CSC[C@H](NC(=O)CC[C@H](N)C(=O)O)C(=O)NCC(=O)O)cc1 [S-(p-Azidophenacyl)glutathione] + C=CCn1c(=O)c2cnc(Nc3ccc(N4CCN(C)CC4)cc3)nc2n1-c1cccc(C(C)(C)O)n1 [MK1775]	inactive: 0.0601
C#CCN(C)CC1=Cc2ccccc2Oc2ccccc21 + C=CCn1c(=O)c2cnc(Nc3ccc(N4CCN(C)CC4)cc3)nc2n1-c1cccc(C(C)(C)O)n1 [MK1775]	inactive: 0.301
Cn1c(=O)c2c(ncn2C)n(C)c1=O [Caffeine] + C=CCn1c(=O)c2cnc(Nc3ccc(N4CCN(C)CC4)cc3)nc2n1-c1cccc(C(C)(C)O)n1 [MK1775]	inactive: -0.271
CC[C@@H]1C(=O)N(C)c2cnc(Nc3ccc(C(=O)NC4CCN(C)CC4)cc3OC)nc2N1C1CCCC1 + C=CCn1c(=O)c2cnc(Nc3ccc(N4CCN(C)CC4)cc3)nc2n1-c1cccc(C(C)(C)O)n1 [MK1775]	inactive: -0.214
NC1CONC1=O (racemic) [DL-Cycloserine] + C=CCn1c(=O)c2cnc(Nc3ccc(N4CCN(C)CC4)cc3)nc2n1-c1cccc(C(C)(C)O)n1 [MK1775]	inactive: 0.818
COc1cc2nc(N3CCCN(C)CC3)nc(NC3CCN(Cc4ccccc4)CC3)c2cc1OC + C=CCn1c(=O)c2cnc(Nc3ccc(N4CCN(C)CC4)cc3)nc2n1-c1cccc(C(C)(C)O)n1 [MK1775]	inactive: -0.739
OC[C@H]1NC[C@@H](O)[C@@H]1O [1,4-Dideoxy-1,4-imino-D-arabinitol] + C=CCn1c(=O)c2cnc(Nc3ccc(N4CCN(C)CC4)cc3)nc2n1-c1cccc(C(C)(C)O)n1 [MK1775]	inactive: -1.29
Cc1nc2c([nH]1)c(=O)n(C)c(=O)n2Cc1ccco1 [Furafylline] + C=CCn1c(=O)c2cnc(Nc3ccc(N4CCN(C)CC4)cc3)nc2n1-c1cccc(C(C)(C)O)n1 [MK1775]	inactive: 1.04
CCC1(C)CC(=O)NC1=O (configuration not stated) [Ethosuximide] + C=CCn1c(=O)c2cnc(Nc3ccc(N4CCN(C)CC4)cc3)nc2n1-c1cccc(C(C)(C)O)n1 [MK1775]	inactive: 0.712
COc1cc(CNC(=O)CCCCCCC(C)C)ccc1O [Dihydrocapsaicin] + C=CCn1c(=O)c2cnc(Nc3ccc(N4CCN(C)CC4)cc3)nc2n1-c1cccc(C(C)(C)O)n1 [MK1775]	inactive: 0.587

In a second layout: entries from further up.

| SMILES | Z' of S-phase gammaH2AX difference (Z-score) |
| --- | --- |
| COc1ccc(COc2cc3oc(=O)c4cc(C(C)O)ccc4c3cc2OC)cc1 (configuration not stated) [Palomid 529] + C=CCn1c(=O)c2cnc(Nc3ccc(N4CCN(C)CC4)cc3)nc2n1-c1cccc(C(C)(C)O)n1 [MK1775] | inactive: 0.154 |
| CCCCCCCC/C=C\CCCCCCCC(=O)O [Oleic Acid] + C=CCn1c(=O)c2cnc(Nc3ccc(N4CCN(C)CC4)cc3)nc2n1-c1cccc(C(C)(C)O)n1 [MK1775] | inactive: 0.223 |

(further entries)

SMILES	Z' of S-phase gammaH2AX difference (Z-score)
N#CC[C@H](C1CCCC1)n1cc(-c2ncnc3[nH]ccc23)cn1 + C=CCn1c(=O)c2cnc(Nc3ccc(N4CCN(C)CC4)cc3)nc2n1-c1cccc(C(C)(C)O)n1 [MK1775]	inactive: -0.242
CCCCS(=N)(=O)CCC(N)C(=O)O [L-Buthionine-sulfoximine] + C=CCn1c(=O)c2cnc(Nc3ccc(N4CCN(C)CC4)cc3)nc2n1-c1cccc(C(C)(C)O)n1 [MK1775]	inactive: -0.454
COc1cccc(OC)c1OCCNCC1CSc2ccccc2O1 (configuration not stated) [Benoxathian hydrochloride] + C=CCn1c(=O)c2cnc(Nc3ccc(N4CCN(C)CC4)cc3)nc2n1-c1cccc(C(C)(C)O)n1 [MK1775]	inactive: 0.00334
CCC(C)(C)C(=O)O[C@H]1C[C@@H](C)C=C2C=C[C@H](C)[C@H](CC[C@@H]3C[C@@H](O)CC(=O)O3)[C@H]21 [Simvastatin (Zocor)] + C=CCn1c(=O)c2cnc(Nc3ccc(N4CCN(C)CC4)cc3)nc2n1-c1cccc(C(C)(C)O)n1 [MK1775]	inactive: 0.224
CSc1nc(N)c2ncn([C@@H]3O[C@H](COP(=O)(O)OP(=O)(O)O)[C@@H](O)[C@H]3O)c2n1 [2-Methylthioadenosine diphosphate trisodium] + C=CCn1c(=O)c2cnc(Nc3ccc(N4CCN(C)CC4)cc3)nc2n1-c1cccc(C(C)(C)O)n1 [MK1775]	inactive: 1.06
CCCCCCCCCCCCCCCCCCNC(=O)OCC(COP(=O)([O-])OCC[n+]1ccsc1)OC (configuration not stated) + C=CCn1c(=O)c2cnc(Nc3ccc(N4CCN(C)CC4)cc3)nc2n1-c1cccc(C(C)(C)O)n1 [MK1775]	inactive: 0.0131
N#Cc1ccc(NC(=O)Nc2ccccc2Br)c2n[nH]nc12 + C=CCn1c(=O)c2cnc(Nc3ccc(N4CCN(C)CC4)cc3)nc2n1-c1cccc(C(C)(C)O)n1 [MK1775]	inactive: -0.138
c1ccc(-c2nn3c(c2-c2ccnc4cc(OCCN5CCOCC5)ccc24)CCC3)nc1 + C=CCn1c(=O)c2cnc(Nc3ccc(N4CCN(C)CC4)cc3)nc2n1-c1cccc(C(C)(C)O)n1 [MK1775]	inactive: 0.947
Clc1ccc(C(c2ccccc2Cl)C(Cl)Cl)cc1 (configuration not stated) [1-(2-Chlorophenyl)-1-(4-chlorophenyl)-2,2-dichloroethane] + C=CCn1c(=O)c2cnc(Nc3ccc(N4CCN(C)CC4)cc3)nc2n1-c1cccc(C(C)(C)O)n1 [MK1775]	inactive: 0.381
NCCCS(=O)(=O)O [3-Amino-1-propanesulfonic acid sodium] + C=CCn1c(=O)c2cnc(Nc3ccc(N4CCN(C)CC4)cc3)nc2n1-c1cccc(C(C)(C)O)n1 [MK1775]	inactive: -0.501
C=CCN1CCc2cc(O)c(O)cc2C(c2ccccc2)C1 (configuration not stated) + C=CCn1c(=O)c2cnc(Nc3ccc(N4CCN(C)CC4)cc3)nc2n1-c1cccc(C(C)(C)O)n1 [MK1775]	inactive: -0.36
Cc1ccc(Nc2nccc(N(C)c3ccc4c(C)n(C)nc4c3)n2)cc1S(N)(=O)=O [Pazopanib] + C=CCn1c(=O)c2cnc(Nc3ccc(N4CCN(C)CC4)cc3)nc2n1-c1cccc(C(C)(C)O)n1 [MK1775]	inactive: -0.285
COc1cc(Nc2ncc3c(n2)-c2ccc(Cl)cc2C(c2c(F)cccc2OC)=NC3)ccc1C(=O)O [MLN8237 (Alisertib)] + C=CCn1c(=O)c2cnc(Nc3ccc(N4CCN(C)CC4)cc3)nc2n1-c1cccc(C(C)(C)O)n1 [MK1775]	inactive: 0.18
O=C(O)c1cc(=O)c2ccccc2[nH]1 [Kynurenic acid] + C=CCn1c(=O)c2cnc(Nc3ccc(N4CCN(C)CC4)cc3)nc2n1-c1cccc(C(C)(C)O)n1 [MK1775]	inactive: -0.697
Cc1cnc(NC(=O)Nc2cc(Br)c(C)cc2OC[C@@H]2CNCCO2)cn1 + C=CCn1c(=O)c2cnc(Nc3ccc(N4CCN(C)CC4)cc3)nc2n1-c1cccc(C(C)(C)O)n1 [MK1775]	active: 2.83
Nc1cc(C(F)(F)F)c(-c2cc(N3CCOCC3)nc(N3CCOCC3)n2)cn1 + C=CCn1c(=O)c2cnc(Nc3ccc(N4CCN(C)CC4)cc3)nc2n1-c1cccc(C(C)(C)O)n1 [MK1775]	inactive: -0.276
Cc1c(C(=O)Nc2ccc(N3C[C@@H](C)O[C@@H](C)C3)nc2)cccc1-c1ccc(OC(F)(F)F)cc1 [LDE225 (NVP-LDE225, Erismodegib)] + C=CCn1c(=O)c2cnc(Nc3ccc(N4CCN(C)CC4)cc3)nc2n1-c1cccc(C(C)(C)O)n1 [MK1775]	inactive: 0.00665
CC(C)NNC(=O)c1ccncc1 [Iproniazid phosphate] + C=CCn1c(=O)c2cnc(Nc3ccc(N4CCN(C)CC4)cc3)nc2n1-c1cccc(C(C)(C)O)n1 [MK1775]	inactive: -0.143
